PubChem BioAssay AID504774, Drosophila RNAi Screening Center, 2011

Aim: 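Fly genes whose loss alters survival after alkylation damage to DNA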 (primary screen)
Cell system: Drosophila Kc167 cells
Reagent: long dsRNA against Drosophila genes, about 0.25 µg dsRNA per well
Time to read-out: about 6 days: 3 days knock-down, then 3 days with or without MMS
Treatment: methyl methanesulphonate 0.004% (w/v) for 3 days after knock-down
Read-out: 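ATP-dependent luminescence as a measure of live cells in MMS-exposed wells, quantile normalised within each plate, with replicate values also given as a mean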
Direction: mean viability with MMS: higher = more surviving cells after MMS
The screen tested about 23,000 reagents; shown is a random part of those that have a named target and a result. 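Values are quantile-normalised luminescence on an arbitrary scale; higher means more cells surviving MMS.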 A plus sign joins genes that one reagent is predicted to hit. Further read-outs or replicates are left out here.

CG5381 [DRSC02852] gave mean viability with MMS 3.62e6.
PGRP-LD + Pmi [DRSC10512] gave mean viability with MMS 3.56e6.
Knock-down of PGRP-LD + Pmi [DRSC10513] gave: mean viability with MMS 3.58e6.
Silencing of CG7611 [DRSC11840] gave: mean viability with MMS 3.60e6.
CG34136 [DRSC01833] scored mean viability with MMS 3.71e6.
For CG33978 [DRSC17106], the entry reads mean viability with MMS 3.54e6.
Knock-down of CG4768 [DRSC19917] came out at: mean viability with MMS 3.80e6.
CAH8 [DRSC15784] scored mean viability with MMS 3.44e6.
Knock-down of CG6356 [DRSC16026] came out at: mean viability with MMS 3.59e6.
After knock-down of Sod1 [DRSC11286], the record shows mean viability with MMS 3.70e6.
For Svip [DRSC08982] the deposit lists mean viability with MMS 3.44e6.
For slbo [DRSC04716], the entry reads mean viability with MMS 3.76e6.
Knock-down of CG30357 [DRSC22472] gave: mean viability with MMS 3.61e6.
For CG30184 [DRSC22277], the values are mean viability with MMS 3.50e6.
Against CG32631 [DRSC19768], the entry reads mean viability with MMS 3.48e6.
After knock-down of Tap42 [DRSC02967], the record shows mean viability with MMS 3.60e6.
After knock-down of mip120 [DRSC06960], the screen gave mean viability with MMS 3.64e6.
ppk27 [DRSC08168] gave mean viability with MMS 3.60e6.
ppk27 [DRSC22211] showed mean viability with MMS 3.46e6.
Silencing of Vps11 [DRSC11909] resulted in: mean viability with MMS 3.32e6.
Against Vps11 [DRSC21579] the deposit lists mean viability with MMS 3.39e6.
For xit [DRSC18364], the values are mean viability with MMS 3.58e6.
THG [DRSC01896] gave mean viability with MMS 3.79e6.
After knock-down of mRpL50 [DRSC11015] the results were mean viability with MMS 3.62e6.
alpha-Man-IIa [DRSC15393] scored mean viability with MMS 3.60e6.
For CG11504 [DRSC14318] the deposit lists mean viability with MMS 3.65e6.
Against Pcyt2 [DRSC08531], the values are mean viability with MMS 3.63e6.
With knock-down of krimp [DRSC06578], the record shows mean viability with MMS 3.54e6.
For CG14142 [DRSC10145] the deposit lists mean viability with MMS 3.58e6.
CG7627 [DRSC03065] showed mean viability with MMS 3.73e6.
With knock-down of CG9782 [DRSC19145] the results were mean viability with MMS 3.55e6.
CG9782 [DRSC20209] showed mean viability with MMS 3.62e6.
For CG7514 [DRSC08597], the values are mean viability with MMS 3.70e6.
After knock-down of CG31233 [DRSC15888] the results were mean viability with MMS 3.68e6.
Depletion of CG2147 [DRSC18211] resulted in: mean viability with MMS 3.64e6.

A run of entries of the results above, for reference:
mRpL50 [DRSC11015] — mean viability with MMS: 3.62e6
alpha-Man-IIa [DRSC15393] — mean viability with MMS: 3.60e6
CG11504 [DRSC14318] — mean viability with MMS: 3.65e6
Pcyt2 [DRSC08531] — mean viability with MMS: 3.63e6
